The record followed here is paper PMC9518246, “Design and synthesis of new indole drug candidates to treat Alzheimer’s disease and targeting neuro-inflammation using a multi-target-directed ligand (MTDL) strategy” (Journal of Enzyme Inhibition and Medicinal Chemistry, 2022).

≈ marks a conversion by molar mass, not a printed value.

Data set [1] in a line: in vitro. It counts as cell-based. Conditions: human. As to the method: (§1) An MTT assay was performed to investigate the effect of the selected two compounds, 5b and 6b, on cell viability using human neuroblastoma (SH-SY5Y) and normal hepatic (THLE2) cell lines. […]. Microglia cell Line, BV-2, human neuroblastoma (SH-SY5Y), and normal hepatic (THLE2) cells were obtained from American Type Culture Collection, cells were cultured using DMEM (Invitrogen/Life Technologies, Carlsbad, CA) supplemented with 10% FBS (Hyclone), 10 µg/mL of insulin (Sigma, St. Louis, MO), and 1% penicillin-streptomycin. All of the other chemicals and reagents were from Sigma, or Invitrogen. Plate cells (cells density 1.2 − 1.8 × 10,000 cells/well) in a volume of 100 µL complete growth medium + 100 µL of the tested compounds per well in a 96-well plate for 24 h before the MTT assay.
(§2) After treatment of cells with the serial concentrations of the compound to be tested, incubation is carried out for 48 h at 37 °C, and then the plates are to be examined under the inverted microscope and proceed for the MTT assay. […]
(§3) Mitochondrial dehydrogenases of viable cells cleave the tetrazolium ring, yielding purple formazan crystals which are insoluble in aqueous solutions. […] The resulting purple solution is spectrophotometrically measured at a wavelength of 570 nm. Measure the background absorbance of multiwell plates at 690 nm and subtract from the 570 nm measurement.

Data set [2] is described as follows: in vitro. The class given is cell-based. The settings on record: human. As to the method: as §1, §2, §3
This is another data set of the same source.

On to `CN[C@@H]1C[C@H]2O[C@@](C)([C@@H]1OC)n1c3ccccc3c3c4c(c5c6ccccc6n2c5c31)C(=O)NC4` [staurosporine, reference compound], for which the IC50 (commonly the concentration at which inhibition is half-maximal) in “in vitro [1]” stood at 11.1 µg/mL (≈ 23.8 µM); in “in vitro [2]” it was 34.6 µg/mL (≈ 74.2 µM).
